# Measured values from patent US20050095242A1 (published 2005).
# Results are given in words; binding and its absence hold for the method and conditions named. Some results given as binding are weak or reduced against the parent protein; the word gives no strength.
# T1: BSA-Compound 1 conjugate (human CCR4 extracellular region peptide Compound 1 conjugated to bovine serum albumin) (human)
# T1 sequence (peptide, conjugated to BSA (bovine serum albumin) via SMCC): DESIYSNYYLYESIPKPC
# Biological target: T1, BSA-Compound 1 conjugate (human CCR4 extracellular region peptide Compound 1 conjugated to bovine serum albumin) (human)
# Test: ELISA, COS-7 culture supernatant on BSA-Compound 1 conjugate
row,Binder,binding
1,"anti-CCR4 CDR-grafted antibody Gal3LV1 (antibody, V domains shown) VH: EVQLVESGGDLVQPGRSLRLSCAASGFIFSNYGMSWVRQAPDKRLEWVATISSASTYSYYPDSVKGRFTISRDNAKNSLYLQMNSLRVEDTALYYCGRHSDGNFAFGYWGQGTLVTVSS VL: DVVMTQSPLSLPVTPGEPASISCRSSRNIVHINGDTYLEWYLQKPGQSPQLLIYKVSNRFSGVPDRFSGSGSGTDFTLKISRVEAEDVGVYYCFQGSLLPWTFGQGTKVEIK",binds
2,"anti-CCR4 CDR-grafted antibody Gal3LV3 (antibody, V domains shown) VH: EVQLVESGGDLVQPGRSLRLSCAASGFIFSNYGMSWVRQAPDKRLEWVATISSASTYSYYPDSVKGRFTISRDNAKNSLYLQMNSLRVEDTALYYCGRHSDGNFAFGYWGQGTLVTVSS VL: DVLMTQSPLSLPVTPGEPASISCRSSRNIVHINGDTYLEWYLQKPGQSPQLLIYKVSNRFSGVPDRFSGSGSGTDFTLKISRVEAEDVGVYYCFQGSLLPWTFGQGTKVEIK",binds
3,"anti-CCR4 CDR-grafted antibody Gal1LV1 (antibody, V domains shown) VH: EVQLVESGGDLVQPGRSLRLSCAASGFIFSNYGMSWVRQAPGKGLEWVATISSASTYSYYPDSVKGRFTISRDNAKNSLYLQMNSLRVEDTALYYCGRHSDGNFAFGYWGQGTLVTVSS VL: DVVMTQSPLSLPVTPGEPASISCRSSRNIVHINGDTYLEWYLQKPGQSPQLLIYKVSNRFSGVPDRFSGSGSGTDFTLKISRVEAEDVGVYYCFQGSLLPWTFGQGTKVEIK",binds
4,"anti-CCR4 CDR-grafted antibody Gal0LV2 (antibody, V domains shown) VH: EVQLVESGGDLVQPGRSLRLSCAASGFIFSNYGMSWVRQAPGKGLEWVATISSASTYSYYPDSVKGRFTISRDNAKNSLYLQMNSLRVEDTALYYCARHSDGNFAFGYWGQGTLVTVSS VL: DILMTQSPLSLPVTPGEPASISCRSSRNIVHINGDTYLEWYLQKPGQSPQLLIYKVSNRFSGVPDRFSGSGSGTDFTLKISRVEAEDVGVYYCFQGSLLPWTFGQGTKVEIK",binds
5,"anti-CCR4 CDR-grafted antibody Gal0LV1 (antibody, V domains shown) VH: EVQLVESGGDLVQPGRSLRLSCAASGFIFSNYGMSWVRQAPGKGLEWVATISSASTYSYYPDSVKGRFTISRDNAKNSLYLQMNSLRVEDTALYYCARHSDGNFAFGYWGQGTLVTVSS VL: DVVMTQSPLSLPVTPGEPASISCRSSRNIVHINGDTYLEWYLQKPGQSPQLLIYKVSNRFSGVPDRFSGSGSGTDFTLKISRVEAEDVGVYYCFQGSLLPWTFGQGTKVEIK",binds
6,"anti-CCR4 CDR-grafted antibody Gal2LV3 (antibody, V domains shown) VH: EVQLVESGGDLVQPGRSLRLSCAASGFIFSNYGMSWVRQAPDKRLEWVATISSASTYSYYPDSVKGRFTISRDNAKNSLYLQMNSLRVEDTALYYCARHSDGNFAFGYWGQGTLVTVSS VL: DVLMTQSPLSLPVTPGEPASISCRSSRNIVHINGDTYLEWYLQKPGQSPQLLIYKVSNRFSGVPDRFSGSGSGTDFTLKISRVEAEDVGVYYCFQGSLLPWTFGQGTKVEIK",binds
7,"anti-CCR4 CDR-grafted antibody Gal1LV3 (antibody, V domains shown) VH: EVQLVESGGDLVQPGRSLRLSCAASGFIFSNYGMSWVRQAPGKGLEWVATISSASTYSYYPDSVKGRFTISRDNAKNSLYLQMNSLRVEDTALYYCGRHSDGNFAFGYWGQGTLVTVSS VL: DVLMTQSPLSLPVTPGEPASISCRSSRNIVHINGDTYLEWYLQKPGQSPQLLIYKVSNRFSGVPDRFSGSGSGTDFTLKISRVEAEDVGVYYCFQGSLLPWTFGQGTKVEIK",binds
8,"anti-CCR4 CDR-grafted antibody Gal0LV3 (antibody, V domains shown) VH: EVQLVESGGDLVQPGRSLRLSCAASGFIFSNYGMSWVRQAPGKGLEWVATISSASTYSYYPDSVKGRFTISRDNAKNSLYLQMNSLRVEDTALYYCARHSDGNFAFGYWGQGTLVTVSS VL: DVLMTQSPLSLPVTPGEPASISCRSSRNIVHINGDTYLEWYLQKPGQSPQLLIYKVSNRFSGVPDRFSGSGSGTDFTLKISRVEAEDVGVYYCFQGSLLPWTFGQGTKVEIK",binds
9,"anti-CCR4 CDR-grafted antibody Gal2LV1 (antibody, V domains shown) VH: EVQLVESGGDLVQPGRSLRLSCAASGFIFSNYGMSWVRQAPDKRLEWVATISSASTYSYYPDSVKGRFTISRDNAKNSLYLQMNSLRVEDTALYYCARHSDGNFAFGYWGQGTLVTVSS VL: DVVMTQSPLSLPVTPGEPASISCRSSRNIVHINGDTYLEWYLQKPGQSPQLLIYKVSNRFSGVPDRFSGSGSGTDFTLKISRVEAEDVGVYYCFQGSLLPWTFGQGTKVEIK",binds

# Second part, the binder after the results:
row,binding,Binder
1,binds,"anti-CCR4 CDR-grafted antibody HV2LV3 (antibody, V domains shown) VH: EVQLVESGGGLVQPGGSLRLSCAASGFTFSNYGMSWVRQAPGKGLEWVSTISSASTYSYYPDSVKGRFTISRDNSKNTLYLQMNSLRAEDTAVYYCGRHSDGNFAFGYWGQGTLVTVSS VL: DVLMTQSPLSLPVTPGEPASISCRSSRNIVHINGDTYLEWYLQKPGQSPQLLIYKVSNRFSGVPDRFSGSGSGTDFTLKISRVEAEDVGVYYCFQGSLLPWTFGQGTKVEIK"
2,binds,"anti-CCR4 CDR-grafted antibody HV0LV2 (antibody, V domains shown) VH: EVQLVESGGGLVQPGGSLRLSCAASGFTFSNYGMSWVRQAPGKGLEWVSTISSASTYSYYPDSVKGRFTISRDNSKNTLYLQMNSLRAEDTAVYYCARHSDGNFAFGYWGQGTLVTVSS VL: DILMTQSPLSLPVTPGEPASISCRSSRNIVHINGDTYLEWYLQKPGQSPQLLIYKVSNRFSGVPDRFSGSGSGTDFTLKISRVEAEDVGVYYCFQGSLLPWTFGQGTKVEIK"
3,binds,"anti-CCR4 CDR-grafted antibody HV1LV2 (antibody, V domains shown) VH: EVQLVESGGGLVQPGGSLRLSCAASGFIFSNYGMSWVRQAPGKGLEWVSTISSASTYSYYPDSVKGRFTISRDNSKNTLYLQMNSLRAEDTAVYYCARHSDGNFAFGYWGQGTLVTVSS VL: DILMTQSPLSLPVTPGEPASISCRSSRNIVHINGDTYLEWYLQKPGQSPQLLIYKVSNRFSGVPDRFSGSGSGTDFTLKISRVEAEDVGVYYCFQGSLLPWTFGQGTKVEIK"
4,binds,"anti-CCR4 CDR-grafted antibody HV0LV1 (antibody, V domains shown) VH: EVQLVESGGGLVQPGGSLRLSCAASGFTFSNYGMSWVRQAPGKGLEWVSTISSASTYSYYPDSVKGRFTISRDNSKNTLYLQMNSLRAEDTAVYYCARHSDGNFAFGYWGQGTLVTVSS VL: DVVMTQSPLSLPVTPGEPASISCRSSRNIVHINGDTYLEWYLQKPGQSPQLLIYKVSNRFSGVPDRFSGSGSGTDFTLKISRVEAEDVGVYYCFQGSLLPWTFGQGTKVEIK"
5,binds,"anti-CCR4 CDR-grafted antibody HV0LV3 (antibody, V domains shown) VH: EVQLVESGGGLVQPGGSLRLSCAASGFTFSNYGMSWVRQAPGKGLEWVSTISSASTYSYYPDSVKGRFTISRDNSKNTLYLQMNSLRAEDTAVYYCARHSDGNFAFGYWGQGTLVTVSS VL: DVLMTQSPLSLPVTPGEPASISCRSSRNIVHINGDTYLEWYLQKPGQSPQLLIYKVSNRFSGVPDRFSGSGSGTDFTLKISRVEAEDVGVYYCFQGSLLPWTFGQGTKVEIK"
6,binds,"anti-CCR4 CDR-grafted antibody HV1LV1 (antibody, V domains shown) VH: EVQLVESGGGLVQPGGSLRLSCAASGFIFSNYGMSWVRQAPGKGLEWVSTISSASTYSYYPDSVKGRFTISRDNSKNTLYLQMNSLRAEDTAVYYCARHSDGNFAFGYWGQGTLVTVSS VL: DVVMTQSPLSLPVTPGEPASISCRSSRNIVHINGDTYLEWYLQKPGQSPQLLIYKVSNRFSGVPDRFSGSGSGTDFTLKISRVEAEDVGVYYCFQGSLLPWTFGQGTKVEIK"
7,binds,"anti-CCR4 CDR-grafted antibody HV1LV3 (antibody, V domains shown) VH: EVQLVESGGGLVQPGGSLRLSCAASGFIFSNYGMSWVRQAPGKGLEWVSTISSASTYSYYPDSVKGRFTISRDNSKNTLYLQMNSLRAEDTAVYYCARHSDGNFAFGYWGQGTLVTVSS VL: DVLMTQSPLSLPVTPGEPASISCRSSRNIVHINGDTYLEWYLQKPGQSPQLLIYKVSNRFSGVPDRFSGSGSGTDFTLKISRVEAEDVGVYYCFQGSLLPWTFGQGTKVEIK"
8,binds,"anti-CCR4 CDR-grafted antibody HV3LV0 (antibody, V domains shown) VH: EVQLVESGGGLVQPGGSLRLSCAASGFIFSNYGMSWVRQAPGKGLEWVSTISSASTYSYYPDSVKGRFTISRDNSKNTLYLQMNSLRAEDTAVYYCGRHSDGNFAFGYWGQGTLVTVSS VL: DIVMTQSPLSLPVTPGEPASISCRSSRNIVHINGDTYLEWYLQKPGQSPQLLIYKVSNRFSGVPDRFSGSGSGTDFTLKISRVEAEDVGVYYCFQGSLLPWTFGQGTKVEIK"
9,binds,"anti-CCR4 CDR-grafted antibody HV3LV3 (antibody, V domains shown) VH: EVQLVESGGGLVQPGGSLRLSCAASGFIFSNYGMSWVRQAPGKGLEWVSTISSASTYSYYPDSVKGRFTISRDNSKNTLYLQMNSLRAEDTAVYYCGRHSDGNFAFGYWGQGTLVTVSS VL: DVLMTQSPLSLPVTPGEPASISCRSSRNIVHINGDTYLEWYLQKPGQSPQLLIYKVSNRFSGVPDRFSGSGSGTDFTLKISRVEAEDVGVYYCFQGSLLPWTFGQGTKVEIK"
10,binds,"anti-CCR4 CDR-grafted antibody HV2LV0 (antibody, V domains shown) VH: EVQLVESGGGLVQPGGSLRLSCAASGFTFSNYGMSWVRQAPGKGLEWVSTISSASTYSYYPDSVKGRFTISRDNSKNTLYLQMNSLRAEDTAVYYCGRHSDGNFAFGYWGQGTLVTVSS VL: DIVMTQSPLSLPVTPGEPASISCRSSRNIVHINGDTYLEWYLQKPGQSPQLLIYKVSNRFSGVPDRFSGSGSGTDFTLKISRVEAEDVGVYYCFQGSLLPWTFGQGTKVEIK"
11,binds,"anti-CCR4 CDR-grafted antibody HV1LV0 (antibody, V domains shown) VH: EVQLVESGGGLVQPGGSLRLSCAASGFIFSNYGMSWVRQAPGKGLEWVSTISSASTYSYYPDSVKGRFTISRDNSKNTLYLQMNSLRAEDTAVYYCARHSDGNFAFGYWGQGTLVTVSS VL: DIVMTQSPLSLPVTPGEPASISCRSSRNIVHINGDTYLEWYLQKPGQSPQLLIYKVSNRFSGVPDRFSGSGSGTDFTLKISRVEAEDVGVYYCFQGSLLPWTFGQGTKVEIK"
